The other results are listed elsewhere or left out.
Legend:
Test in all cases: log2 fold change, soluble protein after heating vs DMSO (PISA); higher = thermal stabilisation; K562 lysate, 10 uM; active = over 0.2 and 3.5 SD of the protein, either way, in both replicates (recomputed)
ibrutinib = compound: C=CC(=O)N1CCC[C@@H](n2nc(-c3ccc(Oc4ccccc4)cc3)c3c(N)ncnc32)C1 [ibrutinib]
How it was run: (§1)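 Quantification was by TMTpro 16plex LC-MS/MS with equalised channel sums, applied to the supernatant after 21,000xg for 90 min. Samples were crude K562 extract at 1 mg/mL protein in PBS pH 7.4 with 1 mM MgCl2, treated with 10 μM compound for 30 min, heated for 3 min across 48°C-58°C, pooled and brought to 0.5% NP-40 at 4°C. Values are log-two fold changes in thermal stability relative to solvent controls, from duplicates.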

Protein sequences, listed by entry. Tags and fused reporters are not part of them. Lines headed by an entry give the natural chain unless they say otherwise; changes in a name come on top.
UniProt P40925: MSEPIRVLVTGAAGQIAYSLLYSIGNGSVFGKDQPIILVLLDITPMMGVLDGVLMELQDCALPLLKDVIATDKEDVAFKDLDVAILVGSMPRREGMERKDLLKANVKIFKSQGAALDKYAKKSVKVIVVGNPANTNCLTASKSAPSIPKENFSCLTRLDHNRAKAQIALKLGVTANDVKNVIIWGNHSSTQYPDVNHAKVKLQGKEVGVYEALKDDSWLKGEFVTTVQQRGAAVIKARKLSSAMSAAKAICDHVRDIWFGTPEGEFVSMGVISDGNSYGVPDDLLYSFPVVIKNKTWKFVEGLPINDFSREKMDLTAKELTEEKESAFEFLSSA
UniProt P40926: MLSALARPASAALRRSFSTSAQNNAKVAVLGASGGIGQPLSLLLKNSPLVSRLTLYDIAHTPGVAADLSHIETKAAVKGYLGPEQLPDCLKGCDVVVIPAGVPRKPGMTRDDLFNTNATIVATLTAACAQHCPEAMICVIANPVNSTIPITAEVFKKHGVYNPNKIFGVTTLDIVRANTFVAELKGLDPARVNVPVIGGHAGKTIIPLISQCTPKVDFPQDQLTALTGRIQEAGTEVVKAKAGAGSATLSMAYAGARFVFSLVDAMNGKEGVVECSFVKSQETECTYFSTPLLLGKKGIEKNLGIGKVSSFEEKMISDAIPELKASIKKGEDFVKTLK
UniProt P61244, whole entry, looked up: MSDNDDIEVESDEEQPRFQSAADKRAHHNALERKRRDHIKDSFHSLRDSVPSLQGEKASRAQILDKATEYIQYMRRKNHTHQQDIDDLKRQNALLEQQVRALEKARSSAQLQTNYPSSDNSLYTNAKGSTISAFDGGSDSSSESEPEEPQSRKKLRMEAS
UniProt Q6ZWT7: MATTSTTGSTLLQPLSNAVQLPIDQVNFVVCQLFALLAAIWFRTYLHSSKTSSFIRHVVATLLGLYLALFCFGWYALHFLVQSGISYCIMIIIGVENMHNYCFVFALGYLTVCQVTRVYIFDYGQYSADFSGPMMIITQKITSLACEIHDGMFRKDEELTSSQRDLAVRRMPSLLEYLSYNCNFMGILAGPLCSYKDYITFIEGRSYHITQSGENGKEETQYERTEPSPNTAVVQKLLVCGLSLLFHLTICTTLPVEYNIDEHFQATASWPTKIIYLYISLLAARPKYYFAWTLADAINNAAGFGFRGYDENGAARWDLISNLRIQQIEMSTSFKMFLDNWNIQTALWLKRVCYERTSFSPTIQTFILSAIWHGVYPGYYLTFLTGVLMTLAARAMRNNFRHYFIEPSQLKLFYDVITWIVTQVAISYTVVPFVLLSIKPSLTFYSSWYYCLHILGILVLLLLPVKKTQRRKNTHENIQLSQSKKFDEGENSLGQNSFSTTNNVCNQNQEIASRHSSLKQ
UniProt Q16798: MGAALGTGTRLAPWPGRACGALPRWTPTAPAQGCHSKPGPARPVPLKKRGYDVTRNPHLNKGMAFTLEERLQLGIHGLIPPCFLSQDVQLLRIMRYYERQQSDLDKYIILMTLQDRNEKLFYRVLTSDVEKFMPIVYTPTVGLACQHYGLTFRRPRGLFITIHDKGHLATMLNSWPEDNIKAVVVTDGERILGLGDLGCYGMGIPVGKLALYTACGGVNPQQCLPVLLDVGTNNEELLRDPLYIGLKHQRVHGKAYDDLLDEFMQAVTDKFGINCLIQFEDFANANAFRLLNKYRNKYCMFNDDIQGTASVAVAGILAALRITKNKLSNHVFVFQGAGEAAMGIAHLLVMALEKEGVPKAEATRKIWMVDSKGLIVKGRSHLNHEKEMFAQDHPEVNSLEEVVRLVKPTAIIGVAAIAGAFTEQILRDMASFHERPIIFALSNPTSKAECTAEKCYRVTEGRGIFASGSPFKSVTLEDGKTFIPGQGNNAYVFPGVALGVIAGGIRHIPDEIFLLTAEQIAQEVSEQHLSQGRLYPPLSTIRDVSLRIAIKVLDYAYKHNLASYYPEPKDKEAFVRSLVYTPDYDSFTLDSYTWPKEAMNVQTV
UniProt Q9BV79: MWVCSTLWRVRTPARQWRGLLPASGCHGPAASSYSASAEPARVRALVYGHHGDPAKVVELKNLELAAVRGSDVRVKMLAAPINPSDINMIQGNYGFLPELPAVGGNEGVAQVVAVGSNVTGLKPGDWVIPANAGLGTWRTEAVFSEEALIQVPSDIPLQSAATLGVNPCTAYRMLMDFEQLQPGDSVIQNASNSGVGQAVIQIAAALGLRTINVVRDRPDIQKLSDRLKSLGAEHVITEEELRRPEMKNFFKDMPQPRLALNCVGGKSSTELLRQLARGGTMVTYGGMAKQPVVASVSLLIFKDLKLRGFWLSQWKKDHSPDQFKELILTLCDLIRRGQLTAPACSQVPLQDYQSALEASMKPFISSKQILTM
UniProt Q9ULK4: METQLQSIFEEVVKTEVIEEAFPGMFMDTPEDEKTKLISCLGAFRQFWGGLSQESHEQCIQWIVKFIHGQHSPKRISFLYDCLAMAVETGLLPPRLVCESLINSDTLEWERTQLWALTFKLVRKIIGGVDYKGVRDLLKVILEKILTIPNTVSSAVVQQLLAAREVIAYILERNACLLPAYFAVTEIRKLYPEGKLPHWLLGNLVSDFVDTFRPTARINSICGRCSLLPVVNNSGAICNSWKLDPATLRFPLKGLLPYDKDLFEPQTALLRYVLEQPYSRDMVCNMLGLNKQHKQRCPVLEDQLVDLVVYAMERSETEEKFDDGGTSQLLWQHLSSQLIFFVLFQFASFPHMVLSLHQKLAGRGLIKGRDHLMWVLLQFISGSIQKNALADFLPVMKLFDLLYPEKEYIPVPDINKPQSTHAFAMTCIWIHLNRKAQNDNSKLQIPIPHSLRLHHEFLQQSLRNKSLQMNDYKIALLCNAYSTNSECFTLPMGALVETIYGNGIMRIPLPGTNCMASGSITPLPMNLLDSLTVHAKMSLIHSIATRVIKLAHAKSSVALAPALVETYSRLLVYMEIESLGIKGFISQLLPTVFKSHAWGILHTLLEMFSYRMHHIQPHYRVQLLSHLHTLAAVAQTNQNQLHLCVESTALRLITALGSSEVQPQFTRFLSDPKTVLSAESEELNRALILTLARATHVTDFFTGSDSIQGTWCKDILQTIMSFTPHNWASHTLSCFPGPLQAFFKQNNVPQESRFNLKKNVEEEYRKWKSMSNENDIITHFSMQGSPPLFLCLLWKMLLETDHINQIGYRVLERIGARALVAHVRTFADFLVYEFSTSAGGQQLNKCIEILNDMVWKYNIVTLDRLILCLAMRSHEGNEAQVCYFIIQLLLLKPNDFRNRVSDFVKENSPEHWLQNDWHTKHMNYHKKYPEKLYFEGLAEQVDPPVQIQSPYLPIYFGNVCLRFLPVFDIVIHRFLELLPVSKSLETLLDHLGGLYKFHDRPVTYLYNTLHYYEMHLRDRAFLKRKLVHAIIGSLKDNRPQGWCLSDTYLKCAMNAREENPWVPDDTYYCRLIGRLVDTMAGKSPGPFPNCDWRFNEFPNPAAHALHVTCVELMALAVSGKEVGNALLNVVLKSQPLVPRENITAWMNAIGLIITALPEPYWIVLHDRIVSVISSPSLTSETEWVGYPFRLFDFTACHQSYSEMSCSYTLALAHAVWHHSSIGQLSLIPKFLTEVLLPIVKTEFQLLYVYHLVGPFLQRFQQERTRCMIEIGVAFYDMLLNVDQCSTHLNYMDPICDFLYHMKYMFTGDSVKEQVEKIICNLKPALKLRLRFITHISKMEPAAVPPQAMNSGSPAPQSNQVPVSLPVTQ
UniProt Q12866: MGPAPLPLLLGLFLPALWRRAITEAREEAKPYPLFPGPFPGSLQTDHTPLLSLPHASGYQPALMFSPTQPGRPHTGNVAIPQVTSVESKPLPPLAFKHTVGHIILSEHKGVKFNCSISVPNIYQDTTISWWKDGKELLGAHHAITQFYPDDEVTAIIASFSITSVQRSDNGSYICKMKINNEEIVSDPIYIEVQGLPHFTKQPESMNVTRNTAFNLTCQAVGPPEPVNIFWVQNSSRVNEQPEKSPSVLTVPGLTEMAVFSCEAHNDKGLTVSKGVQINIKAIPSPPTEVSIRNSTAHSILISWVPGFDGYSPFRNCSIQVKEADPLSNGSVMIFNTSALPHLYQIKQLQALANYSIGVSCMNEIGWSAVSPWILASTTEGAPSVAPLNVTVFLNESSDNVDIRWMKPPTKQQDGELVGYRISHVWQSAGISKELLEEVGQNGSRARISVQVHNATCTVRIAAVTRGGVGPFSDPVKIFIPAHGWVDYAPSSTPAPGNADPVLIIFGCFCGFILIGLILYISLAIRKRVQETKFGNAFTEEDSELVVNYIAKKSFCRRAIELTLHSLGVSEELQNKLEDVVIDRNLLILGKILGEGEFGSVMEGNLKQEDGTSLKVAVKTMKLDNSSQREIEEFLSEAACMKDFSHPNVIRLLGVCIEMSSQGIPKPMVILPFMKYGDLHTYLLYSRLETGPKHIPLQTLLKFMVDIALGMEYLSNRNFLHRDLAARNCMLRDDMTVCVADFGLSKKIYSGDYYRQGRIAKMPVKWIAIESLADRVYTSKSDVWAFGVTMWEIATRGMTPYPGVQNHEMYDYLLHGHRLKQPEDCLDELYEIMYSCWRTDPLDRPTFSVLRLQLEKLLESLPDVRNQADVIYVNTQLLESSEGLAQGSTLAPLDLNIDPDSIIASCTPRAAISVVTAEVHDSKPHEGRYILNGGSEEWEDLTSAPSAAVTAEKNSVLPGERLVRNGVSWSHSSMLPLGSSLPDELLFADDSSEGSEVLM
UniProt Q9BUE0: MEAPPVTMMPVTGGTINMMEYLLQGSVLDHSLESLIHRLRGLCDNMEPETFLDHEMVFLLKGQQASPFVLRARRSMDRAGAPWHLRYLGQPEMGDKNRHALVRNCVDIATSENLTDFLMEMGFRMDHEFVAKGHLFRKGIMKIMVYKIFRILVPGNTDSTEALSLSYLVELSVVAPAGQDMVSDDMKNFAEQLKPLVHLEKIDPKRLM
UniProt Q9NRN9: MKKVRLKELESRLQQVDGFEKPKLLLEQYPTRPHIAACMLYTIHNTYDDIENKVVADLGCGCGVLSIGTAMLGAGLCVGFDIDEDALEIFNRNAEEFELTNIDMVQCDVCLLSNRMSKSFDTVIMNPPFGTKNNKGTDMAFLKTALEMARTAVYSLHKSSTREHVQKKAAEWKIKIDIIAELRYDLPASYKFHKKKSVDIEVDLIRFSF
UniProt Q96RN5: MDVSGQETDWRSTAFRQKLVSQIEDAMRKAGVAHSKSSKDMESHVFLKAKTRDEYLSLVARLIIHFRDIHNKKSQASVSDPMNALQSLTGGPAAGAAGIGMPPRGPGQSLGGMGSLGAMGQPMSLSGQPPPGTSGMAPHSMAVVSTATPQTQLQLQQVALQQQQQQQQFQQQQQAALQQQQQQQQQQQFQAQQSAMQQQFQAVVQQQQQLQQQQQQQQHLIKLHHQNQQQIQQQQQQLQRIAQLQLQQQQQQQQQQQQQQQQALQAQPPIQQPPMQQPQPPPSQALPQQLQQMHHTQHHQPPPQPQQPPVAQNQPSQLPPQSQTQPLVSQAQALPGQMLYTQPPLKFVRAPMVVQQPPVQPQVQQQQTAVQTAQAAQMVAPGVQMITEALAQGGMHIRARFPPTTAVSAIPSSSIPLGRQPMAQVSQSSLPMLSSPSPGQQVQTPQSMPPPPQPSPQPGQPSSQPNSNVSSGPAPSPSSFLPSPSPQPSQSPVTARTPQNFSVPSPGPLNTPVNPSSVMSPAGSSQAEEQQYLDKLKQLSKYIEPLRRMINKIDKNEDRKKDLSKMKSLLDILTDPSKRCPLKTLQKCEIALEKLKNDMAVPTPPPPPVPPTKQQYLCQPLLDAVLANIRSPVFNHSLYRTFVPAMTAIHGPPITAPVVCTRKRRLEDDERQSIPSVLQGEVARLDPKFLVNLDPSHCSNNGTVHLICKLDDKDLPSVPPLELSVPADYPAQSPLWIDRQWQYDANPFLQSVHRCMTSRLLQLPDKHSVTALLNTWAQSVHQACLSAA
UniProt P48163: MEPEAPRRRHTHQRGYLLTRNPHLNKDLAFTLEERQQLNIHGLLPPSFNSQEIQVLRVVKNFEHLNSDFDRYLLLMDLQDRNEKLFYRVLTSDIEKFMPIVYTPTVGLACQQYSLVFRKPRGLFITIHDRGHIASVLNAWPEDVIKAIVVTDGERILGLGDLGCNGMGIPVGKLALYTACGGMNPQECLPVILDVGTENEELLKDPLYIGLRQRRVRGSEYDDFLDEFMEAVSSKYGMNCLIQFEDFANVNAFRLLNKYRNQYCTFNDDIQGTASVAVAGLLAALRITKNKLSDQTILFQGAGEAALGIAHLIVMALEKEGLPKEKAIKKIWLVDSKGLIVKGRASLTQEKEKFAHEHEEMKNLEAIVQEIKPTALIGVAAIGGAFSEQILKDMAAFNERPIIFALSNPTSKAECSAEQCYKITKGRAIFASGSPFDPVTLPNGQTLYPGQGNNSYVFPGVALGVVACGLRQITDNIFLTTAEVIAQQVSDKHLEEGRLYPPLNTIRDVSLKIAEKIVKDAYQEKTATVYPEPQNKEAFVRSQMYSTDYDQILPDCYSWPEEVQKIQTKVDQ

[1] = compound: CC(=O)c1cnc2ccc(-c3cc(Cl)c(O)c(Cl)c3)nc2c1N[C@H]1CC[C@H](CN(C)C)CC1
How it was run: as §1

ralimetinib = compound: CC(C)(C)Cn1c(N)nc2ccc(-c3[nH]c(C(C)(C)C)nc3-c3ccc(F)cc3)nc21 [ralimetinib]
How it was run: as §1

[2] = compound: CC(C)(O)CC(=O)NCCn1ccc2ncnc(Nc3ccc(Oc4cccc(C(F)(F)F)c4)c(Cl)c3)c21
How it was run: as §1

[3] = compound: CC(C)C1=C2N=C(C=C(N2N=C1)NCC3=CC=CC=C3)NCCCCCCN
How it was run: as §1

[4] = compound: CC1=C(C(CC(=O)N1)C2=CC=C(C=C2)C(F)(F)F)C(=O)NC3=C(C=C4C(=C3)C=NN4)F
How it was run: as §1

[5] = compound: CC1=C(C2=C(C=C1)C(=O)C3=CC=CC=C3N2CCCN)C
How it was run: as §1

[6] = compound: CC1=C(C=C(C=C1)NC(=O)C2=CC(=CC=C2)C(C)(C)C#N)NC3=CC4=C(C=C3)N=CN(C4=O)C
How it was run: as §1

[7] = compound: CC1=C(C=C(C=C1)NC(=O)C2=CC(=CC=C2)N(C)C)NC(=O)C3=CC=C(C=C3)O
How it was run: as §1

[8] = compound: CC1=CC=C(C=C1)SC2=C3C=C(SC3=CN=C2)C(=O)N
How it was run: as §1

vemurafenib = compound: CCCS(=O)(=O)Nc1ccc(F)c(C(=O)c2c[nH]c3ncc(-c4ccc(Cl)cc4)cc23)c1F [vemurafenib]
How it was run: as §1

[9] = compound: CCCS(=O)(=O)Nc1ccc(F)c(C(=O)c2c[nH]c3ncc(Cl)cc23)c1F
How it was run: as §1

barasertib = compound: CCN(CCCOc1ccc2c(Nc3cc(CC(=O)Nc4cccc(F)c4)[nH]n3)ncnc2c1)CCOP(=O)(O)O [barasertib]
How it was run: as §1

[10] = compound: CC[C@@H]1C(=O)N(C)c2cnc(Nc3ccc(C(=O)NC4CCN(C)CC4)cc3OC)nc2N1C1CCCC1
How it was run: as §1

volasertib = compound: CC[C@@H]1C(=O)N(C)c2cnc(Nc3ccc(C(=O)N[C@H]4CC[C@H](N5CCN(CC6CC6)CC5)CC4)cc3OC)nc2N1C(C)C [volasertib]
How it was run: as §1

[11] = compound: CCn1c(C(=O)N(C2CC2)C2CC2)cc2c3c(ncn3C)c(Nc3cc(C)n(C)n3)nc21
How it was run: as §1

[12] = compound: CCn1cc(-c2ccnc3[nH]c(-c4cccc(CN(C)C)c4)cc23)c(-c2ccc(NC(=O)N(C)C)cc2)n1
How it was run: as §1

[13] = compound: CN1CCC(CNc2ccc3ncc(-c4cccc(OC(F)(F)F)c4)n3n2)CC1
How it was run: as §1

saracatinib = compound: CN1CCN(CCOc2cc(OC3CCOCC3)c3c(Nc4c(Cl)ccc5c4OCO5)ncnc3c2)CC1 [saracatinib]
How it was run: as §1

sotrastaurin = compound: CN1CCN(c2nc(C3=C(c4c[nH]c5ccccc45)C(=O)NC3=O)c3ccccc3n2)CC1 [sotrastaurin]
How it was run: as §1

Measured: log2 fold change

MDH1 isoform 3 (UniProt P40925)
inactive: ibrutinib 0.003 | [1] -0.016 | ralimetinib -0.014 | [2] 0.02 | [3] 0.002 | [4] -0.028 | [5] -0.01 | [6] -0.015 | [7] -0.038 | [8] -0.002 | vemurafenib -0.01 | [9] -0.024 | barasertib -0.015 | [10] -0.005 | volasertib 0.032 | [11] -0.022 | [12] 0.009 | [13] -0.014 | saracatinib -0.044 | sotrastaurin -0.047

MDH2 (UniProt P40926)
inactive: ibrutinib -0.004 | [1] -0.022 | ralimetinib -0.002 | [2] 0.036 | [3] -0.01 | [4] -0.007 | [5] 0.002 | [6] -0.007 | [7] -0.022 | [8] -0.028 | vemurafenib -0.017 | [9] 0.023 | barasertib -0.018 | [10] 0.007 | volasertib 0.013 | [11] -0.01 | [12] 0.03 | [13] -0.01 | saracatinib -0.006 | sotrastaurin 0.011

MAX (UniProt P61244)
inactive: ibrutinib -0.026 | [1] -0.019 | ralimetinib -0.012 | [2] -0.034 | [3] -0.001 | [4] 0.09 | [5] 0.001 | [6] 0.001 | [7] 0.009 | [8] -0.036 | vemurafenib 0.01 | [9] 0.008 | barasertib -0.106 | [10] -0.037 | volasertib 0.054 | [11] -0.001 | [12] 0.081 | [13] 0.003 | saracatinib -0.017 | sotrastaurin 0.035

MBOAT2 (UniProt Q6ZWT7)
inactive: ibrutinib -0.092 | [1] -0.039 | ralimetinib 0.137 | [2] 0.047 | [3] -0.047 | [4] 0.034 | [5] 0.031 | [6] 0.008 | [7] -0.117 | [8] 0.096 | vemurafenib 0.02 | [9] -0.01 | barasertib 0.121 | [10] 0.159 | volasertib -0.103 | [11] -0.015 | [12] -0.251 | [13] 0.026 | saracatinib 0.045 | sotrastaurin 0.284

ME3 (UniProt Q16798)
inactive: ibrutinib -0.027 | [1] 0.012 | ralimetinib 0.087 | [2] -0.06 | [3] -0.058 | [4] 0.065 | [5] 0 | [6] 0.058 | [7] 0.052 | [8] -0.114 | vemurafenib 0.053 | [9] -0.046 | barasertib -0.015 | [10] -0.036 | volasertib 0.008 | [11] 0.018 | [12] -0.167 | [13] 0.131 | saracatinib 0.015 | sotrastaurin 0.041

MECR (UniProt Q9BV79)
inactive: ibrutinib 0.025 | [1] -0.029 | ralimetinib -0.006 | [2] -0.049 | [3] 0.008 | [4] 0.008 | [5] 0.058 | [6] -0.006 | [7] 0.006 | [8] 0.011 | vemurafenib 0.055 | [9] 0.035 | barasertib 0.008 | [10] -0.05 | volasertib -0.008 | [11] 0.004 | [12] -0.043 | [13] 0.023 | saracatinib 0.095 | sotrastaurin -0.007

MED23 (UniProt Q9ULK4)
inactive: ibrutinib -0.002 | [1] -0.027 | ralimetinib 0.042 | [2] -0.033 | [3] 0 | [4] 0.019 | [5] -0.005 | [6] -0.018 | [7] 0.037 | [8] -0.015 | vemurafenib 0.018 | [9] 0.004 | barasertib -0.016 | [10] -0.004 | volasertib -0.041 | [11] 0.029 | [12] -0.027 | [13] -0.015 | saracatinib 0.041 | sotrastaurin -0.006

MERTK (UniProt Q12866)
inactive: ibrutinib 0.092 | [1] 0.034 | ralimetinib -0.069 | [2] -0.056 | [3] 0.042 | [4] 0 | [5] 0 | [6] -0.082 | [7] 0.093 | [8] 0.025 | vemurafenib 0.062 | [9] -0.067 | barasertib 0.298 | [10] -0.004 | volasertib -0.031 | [11] -0.066 | [12] 0.133 | [13] -0.16 | saracatinib -0.088 | sotrastaurin 0.013

MED18 (UniProt Q9BUE0)
inactive: ibrutinib -0.004 | [1] 0.006 | ralimetinib 0.037 | [2] -0.024 | [3] -0.022 | [4] 0.048 | [5] -0.008 | [6] -0.023 | [7] 0.012 | [8] -0.014 | vemurafenib -0.031 | [9] -0.004 | barasertib 0.018 | [10] 0.007 | volasertib -0.026 | [11] 0.002 | [12] 0.043 | [13] -0.175 | saracatinib 0.013 | sotrastaurin -0.031

Fetched one by one from the list above (two):
MBOAT2 (UniProt Q6ZWT7)
inactive: ibrutinib -0.092 | [1] -0.039 | ralimetinib 0.137 | [2] 0.047 | [3] -0.047 | [4] 0.034 | [5] 0.031 | [6] 0.008 | [7] -0.117 | [8] 0.096 | vemurafenib 0.02 | [9] -0.01 | barasertib 0.121 | [10] 0.159 | volasertib -0.103 | [11] -0.015 | [12] -0.251 | [13] 0.026 | saracatinib 0.045 | sotrastaurin 0.284

MED18 (UniProt Q9BUE0)
inactive: ibrutinib -0.004 | [1] 0.006 | ralimetinib 0.037 | [2] -0.024 | [3] -0.022 | [4] 0.048 | [5] -0.008 | [6] -0.023 | [7] 0.012 | [8] -0.014 | vemurafenib -0.031 | [9] -0.004 | barasertib 0.018 | [10] 0.007 | volasertib -0.026 | [11] 0.002 | [12] 0.043 | [13] -0.175 | saracatinib 0.013 | sotrastaurin -0.031

Remaining list, next part.

METTL5 (UniProt Q9NRN9)
inactive: ibrutinib -0.022 | [1] -0.006 | ralimetinib -0.019 | [2] -0.007 | [3] -0.056 | [4] 0.024 | [5] 0.03 | [6] -0.013 | [7] 0.007 | [8] -0.01 | vemurafenib -0.008 | [9] -0.019 | barasertib -0.01 | [10] 0.024 | volasertib 0.023 | [11] 0.001 | [12] 0.218 | [13] -0.01 | saracatinib -0.046 | sotrastaurin 0.005

MDN1 (UniProt Q9NU22)
inactive: ibrutinib -0.024 | [1] -0.04 | ralimetinib 0.026 | [2] -0.062 | [3] -0.012 | [4] -0.026 | [5] -0.05 | [6] 0.001 | [7] 0.071 | [8] -0.031 | vemurafenib 0.023 | [9] 0.016 | barasertib 0.034 | [10] -0.033 | volasertib -0.066 | [11] -0.023 | [12] -0.175 | [13] 0.099 | saracatinib 0.028 | sotrastaurin 0.016

MCM2 (UniProt P49736)
inactive: ibrutinib -0.013 | [1] -0.024 | ralimetinib 0.014 | [2] -0.01 | [3] -0.001 | [4] 0.002 | [5] -0.025 | [6] -0.031 | [7] 0.014 | [8] 0.013 | vemurafenib 0.021 | [9] 0.014 | barasertib 0.006 | [10] -0.04 | volasertib -0.051 | [11] -0.006 | [12] -0.018 | [13] -0.016 | saracatinib 0.01 | sotrastaurin 0.013

MEPCE (UniProt Q7L2J0)
inactive: ibrutinib 0.001 | [1] -0.013 | ralimetinib 0 | [2] 0.03 | [3] 0.02 | [4] 0.013 | [5] 0.015 | [6] -0.024 | [7] 0.021 | [8] 0.012 | vemurafenib -0.048 | [9] -0.002 | barasertib -0.059 | [10] -0.01 | volasertib -0.016 | [11] 0.005 | [12] 0.023 | [13] -0.026 | saracatinib -0.011 | sotrastaurin -0.02

MED20 (UniProt Q9H944)
inactive: ibrutinib 0.086 | [1] -0.024 | ralimetinib -0.028 | [2] -0.116 | [3] -0.032 | [4] -0.037 | [5] 0.012 | [6] 0.03 | [7] 0.044 | [8] -0.019 | vemurafenib -0.003 | [9] -0.027 | barasertib 0.061 | [10] 0.089 | volasertib 0.012 | [11] 0.097 | [12] -0.088 | [13] 0.075 | saracatinib -0.01 | sotrastaurin -0.013

MED15 (UniProt Q96RN5)
inactive: ibrutinib 0.024 | [1] -0.024 | ralimetinib 0.014 | [2] 0.023 | [3] 0.014 | [4] 0.024 | [5] -0.033 | [6] -0.003 | [7] 0.006 | [8] 0.009 | vemurafenib -0.04 | [9] -0.006 | barasertib 0.002 | [10] -0.007 | volasertib -0.004 | [11] 0.063 | [12] 0.08 | [13] 0.001 | saracatinib 0.04 | sotrastaurin -0.004

ME1 (UniProt P48163)
inactive: ibrutinib 0.01 | [1] -0.013 | ralimetinib 0.025 | [2] 0.007 | [3] -0.017 | [4] -0.009 | [5] 0.009 | [6] -0.039 | [7] -0.014 | [8] -0.001 | vemurafenib -0.034 | [9] -0.008 | barasertib -0.014 | [10] -0.011 | volasertib 0.016 | [11] 0.011 | [12] -0.025 | [13] 0.023 | saracatinib 0.013 | sotrastaurin 0.028

— the supplement of paper PMC10849652
